Measured values as given in paper PMC12340957, “Interactions between Lipopolysaccharide and Peptide Bacteriocin BacSp222 Influence Their Biological Activities” (ACS Infectious Diseases, 2025).
Ends that are not written are not given here. * marks the point of attachment. For = O=C*

Assays:
[1] = Gel filtration of LPS, BacSp222 and complexes; assay type: physicochemical
Method: Gel filtration was conducted on a Superdex 200 Increase 10/300 GL (Cytiva, Marlborough, MA, USA) column using an UltiMate 3000 HPLC apparatus (Thermo, Waltham, MA, USA). The separations were performed at room temperature in 50 mM NH4COOH pH 5.8 at a flow rate of 0.6 mL/min. The spectrophotometric detection was conducted at 215 and 280 nm, and before separations, the column was calibrated using tryptophan (204 Da), […] (75 kDa), aldolase (158 kDa), ferritin (440 kDa), and Blue Dextran 2000 (2 MDa). The following samples were separated: (1) 375 μg of LPS O55:B5 (IEC), (2) 375 μg of LPS O111:B4 (PE), (3) 75 μg of BacSp222, (4) 375 μg of LPS O55:B5 (IEC) + 75 μg BacSp222, and (5) 375 μg of LPS O111:B4 (PE) + 75 μg BacSp222. All above solutions were prepared in phosphate-buffered saline (PBS) without Ca^2+ and Mg^2+ (Gibco, Paisley, UK) and were preincubated before separation for 15 min at 37 °C. The fractions containing LPS O55:B5 alone and LPS-BacSp222 complex, visible as peaks eluting at 12.5–14 min and 12.5–16 min, both marked by arrows in Figure , were manually collected, freeze-dried, and subjected to sodium dodecyl sulfate polyacrylamide gel electrophoresis (SDS-PAGE) under reducing conditions. […]

[2] = Isothermal titration calorimetry of BacSp222 against LPS; assay type: binding; conditions: ITC, 37 °C; for BacSp222 to LPS molar ratio at saturation: 93 μM BacSp222 into 48.5 μM LPS O55:B5 (IEC), mean of two titrations

## For-MAGLLRFLLSKGRALYNWAKSHVGKVWEWLKSGATYEQIKEWIENALGWR [BacSp222]
[1]; LPS O55:B5 (IEC) incubated with bacteriocin, SDS-PAGE, denaturing, N-terminal sequencing
  peptide identified in 14 min/620 kDa peak: unequivocally identified by N-terminal sequencing as BacSp222
[1]; gel filtration, only with micellar forms of LPS
  complex formation with LPS: form a direct complex with LPS, but only with their micellar forms
[2]; 137 mM NaCl (PBS, low ionic strength)
  BacSp222 to LPS molar ratio at saturation: 0.5
[2]; 137 mM NaCl
  number of association steps: at least 3
[2]; 500 mM NaCl (high ionic strength)
  BacSp222 to LPS molar ratio at saturation: 0.8
[2]; 500 mM NaCl
  number of association steps: ≥ 2
[2]; 137 and 500 mM NaCl
  BacSp222 to LPS molar ratio at which enthalpies at both ionic strengths become comparable: approximately 0.15
[2]; BacSp222 into buffer, irrespective of salt concentration
  enthalpy of reference titration without LPS: identical, near-zero enthalpies
